The text below walks through data of PubChem BioAssay AID1347423 (Functional Genomics Laboratory (NCATS/FGL), 2020).

Among all 52,000 sequences or so, about 210 (0.4%) were called active.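 The calls were made as follows: active = gene whose silencing raises cell survival under the drug, median off-target-corrected z-score across its silencing RNAs 2 or more; inactive = the rest.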 This is one part of the list.

A short description of the experiment: Resistance to Poly (ADP-Ribose) Polymerase inhibitor: Gene Identification via Genome-wide siRNA Screen. Particulars: mouse BRCA2 R2336H ES cells, olaparib, CellTiter-Glo viability; active compounds read high. Summed up: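 Mouse BRCA2 R2336H ES cells were reverse-transfected with siRNA (20 nM final), treated at 48 h with 500 nM olaparib, and read by CellTiter-Glo after 72 h. Scores: MAD-based z per siRNA, median per gene, seed off-target correction.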
For orientation: ATP-based viability assays read luminescence as a measure of living cells.
Take GCUGAUCACAAACGAUUACTT against Arl9: the z-score was inactive: -0.86.

For CCCAAGAGAAAACGGUGCCTT against Fscn1, the z-score is inactive: -0.0244.

Take GGACAAUAUGAGUUUUCUGTT against Glb1: the z-score was inactive: 0.763.

For the sequence CGAUAAAGUCGAAAUCUACTT against Stat2, the z-score was inactive: 0.532.

In the case of GGAGCGGAGAGAAAGCAUCTT against Mpo, the z-score is inactive: 1.66.

In the case of GGGUGCUCUGAAGAAGCAATT against Olfr488, the z-score was inactive: -0.834.

CCAAAAUAAGUGUGGUCAATT against Gm691: the z-score is inactive: 1.93.

As for GGUAUCCAUGUUAUGCUGUTT against MGC25972, the z-score was inactive: -0.28.

Take GCUCAGAAGUCCAAGAUACTT against Casp12: the z-score is inactive: 2.35.

On to “GGACCUAGUGCGUUCCAAATT against 1700026P10Rik”, for which the z-score was inactive: -1.94.

Consider CCUUCAAUCUUUCUUUCUGTT against Olfr1465, for which the z-score was inactive: -0.713.

As to CAAUAAUGAACAGUAGAGUTT against Olfr798, the z-score is inactive: 0.651.

Turning to “CCAUGAAGACAGGACACUUTT against 4930451E10Rik”, the z-score was inactive: 0.279.

Turning to GGCAACUCCGUAUUAUAACTT against Pcdhb10, the z-score was inactive: 1.48.

Turning to CGAGUACCAUCUUUAUCCATT against Hlcs, the z-score is inactive: 1.39.

Turning to GGACUACUUUAAGGAUUGGTT against Tfip11, the z-score is inactive: -1.3.

Turning to GGUAAUGAUCCAUUCACCATT against Ly75, the z-score was inactive: 1.96.

Consider GGUUCAGACUGCAUCAGGCTT against Cspg3, for which the z-score was inactive: -0.695.

Regarding GCAGAAGUUCAUUUUCCUATT against Olfr145, the z-score is inactive: 0.683.

In the case of GCAGAUGUUGCGUUUCCUGTT against BC006662, the z-score is inactive: 0.437.

In the case of “GCCAUAUAAUUUGACAGAGTT against 9930022N03Rik”, the z-score is inactive: -0.734.

As to CCAGGAGAACAGGAUAUAUTT against Fgr, the z-score was inactive: -1.61.

On to GGGCACAUUCAGAUGUUCGTT against Nmnat2, for which the z-score was inactive: -0.647.

As to “GCCGAACGAAUCCUCAAGUTT against A130009K11Rik”, the z-score is inactive: 0.326.

Turning to CCUAUGAGGAGGUACUAAATT against Itih1, the z-score is inactive: -1.06.

On to GGUACUUGUAUUGCUCAUUTT against Asf1b, for which the z-score is inactive: 0.325.

Take “CCAACAAAAACGUACUUUGTT against 9530091C08Rik”: the z-score was inactive: 0.016.

For “CCUGAUGUUAUUCCUUUUATT against D930050H05Rik”, the z-score is inactive: 0.0593.

On to GGUUGUGGCCAUCAAGAAATT against BC048082, for which the z-score is inactive: 1.59.

Regarding GCAGAACCUUGGAAAAAAATT against Mef2a, the z-score is inactive: 1.01.

For the sequence CCAUGGCCAAGAACUAGUUTT against Hp, the z-score is inactive: -0.0037.

In the case of GCAAUGCUUACUUUUAUGGTT against Zmpste24, the z-score was inactive: -0.00423.

On to GGACUUGUCAGCACUGAGCTT against BB219290, for which the z-score was inactive: 1.25.

As for GCACAAUGGAAGGUGUCCUTT against Tas2r114, the z-score was inactive: 0.354.

Turning to GGAAGGUCUUUGGGAACUGTT against Insl5, the z-score is inactive: -0.877.

Take CCUGAAUGGAAAGAAUUGGTT against LOC622129: the z-score is inactive: 0.161.

Turning to GGAAUCUCUGAAGAAGAAGTT against AI591476, the z-score is inactive: -0.789.

On to GGAGGCAGUUCGAAGAAUUTT against Rab9, for which the z-score is inactive: -0.136.

For the sequence GGUAGAGAUGUACAUUUGGTT against Chrdl2, the z-score is inactive: -0.77.

With GUGAAGAAAGCACUGUUGATT against Olfr978, the z-score is inactive: 0.281.

With “GGCUCUUUGGAGACCAUCATT against 4930432E11Rik”, the z-score was inactive: -0.702.

As to GGAAGGAUAUAAGACACAATT against Mpa2, the z-score was inactive: 0.111.

In the case of GGAGAACUUAAAGCACAAUTT against Plxnb1, the z-score was inactive: -0.891.

CCAAAGACCUUGGUCAUAATT against Tle3: the z-score is inactive: 0.328.

As to GGCUCAGUUUCGAAUUAAATT against Commd5, the z-score is inactive: 0.577.

For the sequence GCAAGUUGUCAAAUCUAAATT against Tm4sf13, the z-score is inactive: 0.949.

In the case of GGGACAAGUGUUCUACUAUTT against Msra, the z-score is inactive: 0.0589.

In the case of GUGGACAAGACCUUCCUGUTT against Cklfsf5, the z-score is inactive: 0.774.

For the sequence GGCCUUAGGAAAAAAAAAGTT against Bad, the z-score is inactive: 0.991.

Regarding GCACUCCACUUUUGUACACTT against Cdc42ep5, the z-score was inactive: 1.06.

As to GGAUCAAAUUAUGUCUUUGTT against Chuk, the z-score was inactive: 1.01.

Turning to GGAGGAGACAGAGAUCAUUTT against Ruvbl2, the z-score was inactive: -2.11.

Turning to “CCUGGAUGCAUGGUUAUUATT against F730023N20”, the z-score was inactive: -0.187.

With “GCUAAGUUGGAAUUUCCACTT against 2500003M10Rik”, the z-score is inactive: 0.633.

Regarding CGAGUAGAGGACUUCUACATT against Olfml2a, the z-score was inactive: -1.02.

Consider “GGUUAUCCGUGGUAACCAUTT against A130052D22”, for which the z-score is inactive: 0.297.

As to GGUUGUGGUCUUUGUUCUGTT against Olfr923, the z-score was inactive: 1.36.

For CGUGAUGAGUGAAAAUGAUTT against Cd34, the z-score was inactive: -0.184.

Consider CCUGAUGUUCUCCUGUCUATT against Xcr1, for which the z-score is inactive: 0.519.

As to GCUUGGUAAAGAAAAACGATT against Xrcc5, the z-score was inactive: 0.297.

For the sequence CCUGCACCAUAAGAAAUCUTT against Gm784, the z-score was inactive: 3.4.

As for “GGAAGACUCACGGCUCAAATT against 1810023B24Rik”, the z-score was inactive: -1.36.

As for “GGAGCUCUGUGAAUCUCUUTT against 2810433K01Rik”, the z-score was inactive: -2.04.

On to “GCCCAAAGUACAUUUGGUGTT against 2810427I04Rik”, for which the z-score was inactive: 0.759.

Consider GGCCGUGGAAUUUUAGACATT against Mtrf1, for which the z-score was inactive: 1.15.

With CGACAUUGUGAUUAUCCAGTT against NE, the z-score was inactive: -0.584.

Regarding GGAACAUGAACACCAUCUGTT against Klk10, the z-score is inactive: -0.507.

Regarding CCAAGAUCCAGUUCAGUUATT against Oaz3, the z-score is inactive: 0.335.

As for GGGACUAACCUACUUAAUGTT against BC019776, the z-score was inactive: 0.393.

Take “GCUAUCUCCACUCUGAGUCTT against 4633402N23Rik”: the z-score was inactive: -1.4.

As to GGCCAGAGCAUUUUCUUCATT against AI449441, the z-score was inactive: 0.469.

Turning to GGCGAGCUUAUCCAUGAUUTT against Ga17, the z-score was inactive: -2.2.

Turning to “GGUGACAGUUGUUCACAAATT against 4933405O20Rik”, the z-score is inactive: 0.0458.

As to “GGCUUUUUGUCUAACAAGUTT against 2410002O22Rik”, the z-score is inactive: -0.36.

Consider GGCACUUUGGAUUAAUUGUTT against Pole4, for which the z-score is inactive: 0.929.

Turning to GGACAAGCAAGAGAUGCUUTT against Atp6v1h, the z-score was inactive: 0.37.

Take GGUAGUGUUAACUAUAUGGTT against Hmgb3: the z-score was active: 1.85.

Take GGCAUCCAACUUCUUUAUGTT against Mrgpra7: the z-score is inactive: 0.0689.

With GCAGAAGAUAGAGUAUGCATT against Myo1h, the z-score is inactive: 1.22.

Take GGACUUAGCGGAUAAUGACTT against Nlgn3: the z-score was inactive: 1.95.

For the sequence GGUGGACUCAUUCUAAUACTT against Nudt1, the z-score was inactive: 0.231.

Take “GGAGUUCAGGUAUCCCUGATT against D7Ertd156e”: the z-score is inactive: -2.19.

In the case of GGGCAUAUAUUCAAGACUUTT against BC047207, the z-score was inactive: -0.791.

With GUGCCCAGAGUCCUAUCCATT against Sprr2j, the z-score was inactive: -1.8.

As to GGCUCAAAUACAGGAAAUUTT against BC018222, the z-score is inactive: -0.662.

GCAUUGUCAUGAUACAACATT against Fem1b: the z-score is inactive: 0.992.

Take GGGACAAAUCUUUUGAUUATT against Impact: the z-score is inactive: -0.97.

As to CCUCUGAUCGAAAGUCUAATT against Ccdc9, the z-score was inactive: -2.7.

As for GGAAUAUACAGUGAAGACATT against Sycp1, the z-score is inactive: 0.132.

Turning to CCUUUGAAAAAGCUUGCCATT against Ifrg15, the z-score is inactive: 0.381.

For the sequence CGGAGAACGACAUUUACAATT against Hnrpf, the z-score is inactive: 0.456.

Take “GGUCCACAGUACCACAUAATT against 5830405N20Rik”: the z-score was inactive: -2.65.

As for CCUAAUAUAGUUGAGGAUGTT against Ncoa6ip, the z-score is inactive: -0.894.

Consider GGGCGACUUAUUUUUUGUUTT against Zfp111, for which the z-score is inactive: 0.528.

Regarding “GCAAGAUACUGACCACUAGTT against 4631426H08Rik”, the z-score is inactive: 1.31.

With GCUAUUUUGGGACGAGUCATT against Col13a1, the z-score was inactive: -2.48.

For the sequence GGACUUCAUCAAAGUCUUATT against Cyp11a1, the z-score is inactive: -1.45.

Regarding GGACAUCACUUGGAGACGATT against Capn10, the z-score is inactive: -0.766.

In the case of GGUUAAGAACUGUUCAGAUTT against Ifnar2, the z-score is inactive: 0.0293.

For the sequence GGUCAUCUCCAAACCCUCCTT against Rbpsuh, the z-score was inactive: -0.0176.

Regarding GGAGCUGAAUCAUUAUCUGTT against Rabep1, the z-score was inactive: 0.283.

With GGAAAAUUAUCCUAGUGCUTT against Serpinb2, the z-score was inactive: -0.0948.

For the sequence CCGGUGACUUGACUUACUATT against Man1b, the z-score is inactive: 0.386.

For the sequence “GGAAGUCGACCUUAUAGUUTT against 4930507C10Rik”, the z-score is inactive: -0.49.
